Measured values as given in patent US20060194321A1, “Directed differentiation of embryonic stem cells and uses thereof” (priority 2005, published 2006).
At least one structure is not confirmed: it was looked up by name or label, or the drawing left a doubt.

System: differentiating hES3 cells
Test: C-peptide release into conditioned medium by ELISA
Type: cell-based, human
Settings: Step 4-only protocol, conditioned medium day 30

C=C[C@@]1(C)CC(=O)[C@]2(O)[C@@]3(C)[C@@H](O)CCC(C)(C)[C@@H]3[C@H](O)[C@H](OC(C)=O)[C@@]2(C)O1 [forskolin, Forskolin]
C-peptide release when the component is present in Step 4 medium: statistically significant increase
